Measurements reported in PMC9869976.
No constants are given. Whether binding was seen depends on the method and setting. In cells and extracts the contact can be indirect. Some binding calls cover weakened binding; strength is not graded here.

Protein sequences, listed by entry. Tags and fused reporters are not part of them. Residues count along the entry.
UniProt P00751, residues 26-764: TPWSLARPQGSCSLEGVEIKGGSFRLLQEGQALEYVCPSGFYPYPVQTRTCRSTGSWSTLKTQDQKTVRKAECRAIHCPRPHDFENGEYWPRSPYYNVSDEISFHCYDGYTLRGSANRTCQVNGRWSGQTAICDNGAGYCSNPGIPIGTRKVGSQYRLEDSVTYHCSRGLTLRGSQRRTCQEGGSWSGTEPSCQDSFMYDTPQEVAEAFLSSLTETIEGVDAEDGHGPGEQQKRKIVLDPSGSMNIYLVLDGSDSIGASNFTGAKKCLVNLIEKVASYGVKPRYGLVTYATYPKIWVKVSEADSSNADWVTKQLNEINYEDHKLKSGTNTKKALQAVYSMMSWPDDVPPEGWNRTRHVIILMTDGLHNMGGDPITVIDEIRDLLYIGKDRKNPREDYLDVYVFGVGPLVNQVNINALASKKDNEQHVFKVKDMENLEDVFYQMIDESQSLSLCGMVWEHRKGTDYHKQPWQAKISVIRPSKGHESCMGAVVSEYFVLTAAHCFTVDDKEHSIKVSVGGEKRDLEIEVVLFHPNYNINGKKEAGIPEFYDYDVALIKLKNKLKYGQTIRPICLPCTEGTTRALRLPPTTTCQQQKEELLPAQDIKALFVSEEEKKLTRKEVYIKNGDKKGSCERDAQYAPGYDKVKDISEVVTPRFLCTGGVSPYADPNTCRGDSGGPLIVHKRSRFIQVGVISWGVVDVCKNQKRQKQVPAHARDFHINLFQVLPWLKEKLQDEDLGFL
UniProt P25963: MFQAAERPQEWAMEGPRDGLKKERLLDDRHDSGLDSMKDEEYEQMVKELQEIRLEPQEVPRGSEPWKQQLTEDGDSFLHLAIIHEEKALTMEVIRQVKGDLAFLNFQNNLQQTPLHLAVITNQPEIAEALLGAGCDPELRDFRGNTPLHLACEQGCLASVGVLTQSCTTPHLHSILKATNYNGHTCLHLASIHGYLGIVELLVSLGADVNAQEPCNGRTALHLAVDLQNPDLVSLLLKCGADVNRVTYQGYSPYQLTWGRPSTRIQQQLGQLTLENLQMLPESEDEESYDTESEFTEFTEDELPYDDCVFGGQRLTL
UniProt Q04206: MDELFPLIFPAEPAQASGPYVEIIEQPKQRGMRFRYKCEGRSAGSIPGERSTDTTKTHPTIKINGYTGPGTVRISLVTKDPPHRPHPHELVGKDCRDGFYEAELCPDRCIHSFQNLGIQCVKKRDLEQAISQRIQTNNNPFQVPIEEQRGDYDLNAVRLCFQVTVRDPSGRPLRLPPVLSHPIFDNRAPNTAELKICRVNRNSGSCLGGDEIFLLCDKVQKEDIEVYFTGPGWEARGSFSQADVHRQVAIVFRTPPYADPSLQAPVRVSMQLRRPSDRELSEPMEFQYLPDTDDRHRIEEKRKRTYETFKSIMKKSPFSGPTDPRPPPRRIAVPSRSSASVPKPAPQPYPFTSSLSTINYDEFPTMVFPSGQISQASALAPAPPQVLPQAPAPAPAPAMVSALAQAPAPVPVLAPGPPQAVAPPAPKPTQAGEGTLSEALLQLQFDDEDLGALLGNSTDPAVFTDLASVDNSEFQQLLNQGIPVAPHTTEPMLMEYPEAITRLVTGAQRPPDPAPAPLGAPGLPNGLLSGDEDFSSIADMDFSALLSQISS

B1: inhibitor of NF-κB kinase subunit B (protein, UniProt O14920 1-756)
chain: MSWSPSLTTQTCGAWEMKERLGTGGFGNVIRWHNQETGEQIAIKQCRQELSPRNRERWCLEIQIMRRLTHPNVVAARDVPEGMQNLAPNDLPLLAMEYCQGGDLRKYLNQFENCCGLREGAILTLLSDIASALRYLHENRIIHRDLKPENIVLQQGEQRLIHKIIDLGYAKELDQGSLCTSFVGTLQYLAPELLEQQKYTVTVDYWSFGTLAFECITGFRPFLPNWQPVQWHSKVRQKSEVDIVVSEDLNGTVKFSSSLPYPNNLNSVLAERLEKWLQLMLMWHPRQRGTDPTYGPNGCFKALDDILNLKLVHILNMVTGTIHTYPVTEDESLQSLKARIQQDTGIPEEDQELLQEAGLALIPDKPATQCISDGKLNEGHTLDMDLVFLFDNSKITYETQISPRPQPESVSCILQEPKRNLAFFQLRKVWGQVWHSIQTLKEDCNRLQQGQRAAMMNLLRNNSCLSKMKNSMASMSQQLKAKLDFFKTSIQIDLEKYSEQTEFGITSDKLLLAWREMEQAVELCGRENEVKLLVERMMALQTDIVDLQRSPMGRKQGGTLDDLEEQARELYRRLREKPRDQRTEGDSQEMVRLLLQAIQSFEKKVRVIYTQLSKTVVCKQKALELLPKVEEVVSLMNEDEKTVVRLQEKRQKELWNLLKIACSKVRGPVSGSPDSMNASRLSQPGQLMSQPSTASNSLPEPAKKSEELVAEAHNLCTLLENAIQDTVREQDQSFTALDWSWLQTEEEEHSCLEQAS

These molecules were tested against complement factor B (human (endogenous in HK-2)) (UniProt P00751) (assay: co-IP; HK-2 total protein lysate (500 μg protein in 500 μL) incubated with 5 μg anti-CFB (Quidel) or anti-IgG antibody on beads (Pierce Crosslink Magnetic Co-IP kit), overnight at 4°C; low-pH elution; immunoblot for NF-κB p65, IκBα and IKBKB).

binding | Molecule
no binding | IκBα (from UniProt P25963 1-317)
no binding | NF-κB p65 (from UniProt Q04206 1-551)
binds | B1
